In US20240307819A1, “ELECTROCHEMICAL TARGET SPECIES CAPTURE WITH A REDOX-ACTIVE AMINE” (Massachusetts Institute of Technology, priority 2021, published 2024):
At least one compound was matched to its structure with a doubt left.

Test: Cyclic voltammetry of the redox-active amines
Settings: Table 1; techniques of Example 1

N[n+]1c2ccccc2nc2ccccc21 [Entry 20, amino-phenazinium]
Ep^red vs Ag/AgCl: −0.45 V

N[n+]1ccccc1 [Entry 19, 1-aminopyrazinium]
Ep^red vs Ag/AgCl: −0.82 V
